{
  "sequences": {"note": "Sequences of proteins named here, by UniProt entry; tags and fusion partners are left off. Residues count along the entry.", "UniProt Q6VS19": "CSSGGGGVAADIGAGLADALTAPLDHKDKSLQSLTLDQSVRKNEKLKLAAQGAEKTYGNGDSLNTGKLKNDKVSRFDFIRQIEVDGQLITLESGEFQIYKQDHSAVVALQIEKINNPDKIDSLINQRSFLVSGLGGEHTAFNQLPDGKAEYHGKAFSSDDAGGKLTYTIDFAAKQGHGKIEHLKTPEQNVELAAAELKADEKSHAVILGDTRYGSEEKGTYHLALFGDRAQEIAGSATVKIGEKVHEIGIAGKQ", "UniProt P08603, residues 19-1231": "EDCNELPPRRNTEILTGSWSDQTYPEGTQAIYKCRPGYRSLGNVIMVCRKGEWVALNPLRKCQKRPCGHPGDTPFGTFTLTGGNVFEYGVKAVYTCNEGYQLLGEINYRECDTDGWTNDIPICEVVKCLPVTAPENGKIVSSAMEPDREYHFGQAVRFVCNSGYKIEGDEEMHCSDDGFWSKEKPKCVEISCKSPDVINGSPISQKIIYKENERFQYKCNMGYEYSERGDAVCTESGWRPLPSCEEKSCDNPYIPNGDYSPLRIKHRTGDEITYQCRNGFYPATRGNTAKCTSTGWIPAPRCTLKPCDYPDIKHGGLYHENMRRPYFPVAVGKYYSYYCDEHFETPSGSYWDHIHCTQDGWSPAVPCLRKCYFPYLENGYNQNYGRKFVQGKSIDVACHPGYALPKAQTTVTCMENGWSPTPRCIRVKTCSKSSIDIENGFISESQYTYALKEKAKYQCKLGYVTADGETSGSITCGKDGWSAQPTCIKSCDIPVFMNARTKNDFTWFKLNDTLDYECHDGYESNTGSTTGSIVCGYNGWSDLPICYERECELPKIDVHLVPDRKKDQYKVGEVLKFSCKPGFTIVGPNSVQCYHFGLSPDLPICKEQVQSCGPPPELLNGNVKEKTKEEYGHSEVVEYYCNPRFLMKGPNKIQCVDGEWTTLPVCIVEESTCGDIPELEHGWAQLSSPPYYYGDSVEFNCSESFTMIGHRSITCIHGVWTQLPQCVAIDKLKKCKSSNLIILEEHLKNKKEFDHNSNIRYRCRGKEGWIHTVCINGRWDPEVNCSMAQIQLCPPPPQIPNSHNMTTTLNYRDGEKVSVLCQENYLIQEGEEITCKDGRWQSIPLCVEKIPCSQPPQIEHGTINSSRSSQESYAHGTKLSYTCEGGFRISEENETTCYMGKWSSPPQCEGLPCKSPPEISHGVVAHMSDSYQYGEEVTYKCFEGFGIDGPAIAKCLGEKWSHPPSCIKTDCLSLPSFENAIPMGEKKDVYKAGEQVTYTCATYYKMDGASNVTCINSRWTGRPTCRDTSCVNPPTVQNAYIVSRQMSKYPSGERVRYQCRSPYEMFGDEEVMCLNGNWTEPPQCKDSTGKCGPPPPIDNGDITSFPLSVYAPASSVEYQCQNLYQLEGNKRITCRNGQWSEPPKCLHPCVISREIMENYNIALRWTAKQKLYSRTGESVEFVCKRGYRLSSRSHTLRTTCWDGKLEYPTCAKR"},
  "source": "paper PMC7556464",
  "molecular_target": "native fHbp v2.16 on live N. meningitidis strain UK104 (M08-240104) (Neisseria meningitidis) (UniProt Q6VS19)",
  "assay": "flow cytometry on cells; only the binder purified",
  "note": "No constants are given. Whether binding was seen depends on the method and setting. Some binding calls cover weakened binding; strength is not graded here.",
  "data": [
    {"substance": "human factor H (from UniProt P08603 19-1231)", "values": [
      {"measurement": "binding", "result": "binds"}
    ]}
  ]
}
